Results as given in publication doi:10.64898/2025.12.16.694471.

The chains behind the UniProt entries cited, without tags or fusion partners. Where a name states a change or a piece, a line headed by the entry shows the natural chain unless it says otherwise.
UniProt Q9Y134: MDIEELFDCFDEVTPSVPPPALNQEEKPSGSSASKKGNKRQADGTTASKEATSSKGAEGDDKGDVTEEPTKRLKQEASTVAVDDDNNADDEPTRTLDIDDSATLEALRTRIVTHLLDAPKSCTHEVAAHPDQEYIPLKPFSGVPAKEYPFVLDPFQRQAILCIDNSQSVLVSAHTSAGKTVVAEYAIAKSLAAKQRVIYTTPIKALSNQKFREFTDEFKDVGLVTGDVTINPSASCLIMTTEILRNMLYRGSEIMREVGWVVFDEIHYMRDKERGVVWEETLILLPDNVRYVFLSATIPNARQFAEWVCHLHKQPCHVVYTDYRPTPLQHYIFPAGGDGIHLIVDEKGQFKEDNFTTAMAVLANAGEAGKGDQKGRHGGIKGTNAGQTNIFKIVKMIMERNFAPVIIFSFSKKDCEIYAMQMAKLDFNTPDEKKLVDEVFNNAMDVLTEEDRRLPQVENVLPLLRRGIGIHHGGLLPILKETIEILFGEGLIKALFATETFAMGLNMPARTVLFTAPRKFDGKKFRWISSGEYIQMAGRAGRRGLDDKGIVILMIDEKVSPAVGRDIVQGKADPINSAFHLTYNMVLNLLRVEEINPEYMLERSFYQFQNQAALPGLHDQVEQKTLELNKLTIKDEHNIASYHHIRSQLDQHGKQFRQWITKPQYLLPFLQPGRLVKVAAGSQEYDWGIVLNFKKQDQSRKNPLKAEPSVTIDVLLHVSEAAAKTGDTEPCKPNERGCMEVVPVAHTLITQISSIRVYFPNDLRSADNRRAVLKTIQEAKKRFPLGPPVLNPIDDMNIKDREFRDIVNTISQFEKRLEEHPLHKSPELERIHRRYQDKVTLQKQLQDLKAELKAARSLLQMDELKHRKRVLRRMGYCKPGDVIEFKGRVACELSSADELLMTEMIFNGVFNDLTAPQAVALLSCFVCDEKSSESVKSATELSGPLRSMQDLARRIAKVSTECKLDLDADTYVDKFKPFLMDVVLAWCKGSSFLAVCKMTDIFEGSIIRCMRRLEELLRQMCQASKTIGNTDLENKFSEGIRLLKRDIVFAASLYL
UniProt Q8SWX0: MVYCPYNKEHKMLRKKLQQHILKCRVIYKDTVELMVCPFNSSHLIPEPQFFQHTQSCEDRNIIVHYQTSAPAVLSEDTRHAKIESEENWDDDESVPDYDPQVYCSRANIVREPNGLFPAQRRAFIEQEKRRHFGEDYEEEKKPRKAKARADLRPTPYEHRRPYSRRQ
UniProt Q9W3W6: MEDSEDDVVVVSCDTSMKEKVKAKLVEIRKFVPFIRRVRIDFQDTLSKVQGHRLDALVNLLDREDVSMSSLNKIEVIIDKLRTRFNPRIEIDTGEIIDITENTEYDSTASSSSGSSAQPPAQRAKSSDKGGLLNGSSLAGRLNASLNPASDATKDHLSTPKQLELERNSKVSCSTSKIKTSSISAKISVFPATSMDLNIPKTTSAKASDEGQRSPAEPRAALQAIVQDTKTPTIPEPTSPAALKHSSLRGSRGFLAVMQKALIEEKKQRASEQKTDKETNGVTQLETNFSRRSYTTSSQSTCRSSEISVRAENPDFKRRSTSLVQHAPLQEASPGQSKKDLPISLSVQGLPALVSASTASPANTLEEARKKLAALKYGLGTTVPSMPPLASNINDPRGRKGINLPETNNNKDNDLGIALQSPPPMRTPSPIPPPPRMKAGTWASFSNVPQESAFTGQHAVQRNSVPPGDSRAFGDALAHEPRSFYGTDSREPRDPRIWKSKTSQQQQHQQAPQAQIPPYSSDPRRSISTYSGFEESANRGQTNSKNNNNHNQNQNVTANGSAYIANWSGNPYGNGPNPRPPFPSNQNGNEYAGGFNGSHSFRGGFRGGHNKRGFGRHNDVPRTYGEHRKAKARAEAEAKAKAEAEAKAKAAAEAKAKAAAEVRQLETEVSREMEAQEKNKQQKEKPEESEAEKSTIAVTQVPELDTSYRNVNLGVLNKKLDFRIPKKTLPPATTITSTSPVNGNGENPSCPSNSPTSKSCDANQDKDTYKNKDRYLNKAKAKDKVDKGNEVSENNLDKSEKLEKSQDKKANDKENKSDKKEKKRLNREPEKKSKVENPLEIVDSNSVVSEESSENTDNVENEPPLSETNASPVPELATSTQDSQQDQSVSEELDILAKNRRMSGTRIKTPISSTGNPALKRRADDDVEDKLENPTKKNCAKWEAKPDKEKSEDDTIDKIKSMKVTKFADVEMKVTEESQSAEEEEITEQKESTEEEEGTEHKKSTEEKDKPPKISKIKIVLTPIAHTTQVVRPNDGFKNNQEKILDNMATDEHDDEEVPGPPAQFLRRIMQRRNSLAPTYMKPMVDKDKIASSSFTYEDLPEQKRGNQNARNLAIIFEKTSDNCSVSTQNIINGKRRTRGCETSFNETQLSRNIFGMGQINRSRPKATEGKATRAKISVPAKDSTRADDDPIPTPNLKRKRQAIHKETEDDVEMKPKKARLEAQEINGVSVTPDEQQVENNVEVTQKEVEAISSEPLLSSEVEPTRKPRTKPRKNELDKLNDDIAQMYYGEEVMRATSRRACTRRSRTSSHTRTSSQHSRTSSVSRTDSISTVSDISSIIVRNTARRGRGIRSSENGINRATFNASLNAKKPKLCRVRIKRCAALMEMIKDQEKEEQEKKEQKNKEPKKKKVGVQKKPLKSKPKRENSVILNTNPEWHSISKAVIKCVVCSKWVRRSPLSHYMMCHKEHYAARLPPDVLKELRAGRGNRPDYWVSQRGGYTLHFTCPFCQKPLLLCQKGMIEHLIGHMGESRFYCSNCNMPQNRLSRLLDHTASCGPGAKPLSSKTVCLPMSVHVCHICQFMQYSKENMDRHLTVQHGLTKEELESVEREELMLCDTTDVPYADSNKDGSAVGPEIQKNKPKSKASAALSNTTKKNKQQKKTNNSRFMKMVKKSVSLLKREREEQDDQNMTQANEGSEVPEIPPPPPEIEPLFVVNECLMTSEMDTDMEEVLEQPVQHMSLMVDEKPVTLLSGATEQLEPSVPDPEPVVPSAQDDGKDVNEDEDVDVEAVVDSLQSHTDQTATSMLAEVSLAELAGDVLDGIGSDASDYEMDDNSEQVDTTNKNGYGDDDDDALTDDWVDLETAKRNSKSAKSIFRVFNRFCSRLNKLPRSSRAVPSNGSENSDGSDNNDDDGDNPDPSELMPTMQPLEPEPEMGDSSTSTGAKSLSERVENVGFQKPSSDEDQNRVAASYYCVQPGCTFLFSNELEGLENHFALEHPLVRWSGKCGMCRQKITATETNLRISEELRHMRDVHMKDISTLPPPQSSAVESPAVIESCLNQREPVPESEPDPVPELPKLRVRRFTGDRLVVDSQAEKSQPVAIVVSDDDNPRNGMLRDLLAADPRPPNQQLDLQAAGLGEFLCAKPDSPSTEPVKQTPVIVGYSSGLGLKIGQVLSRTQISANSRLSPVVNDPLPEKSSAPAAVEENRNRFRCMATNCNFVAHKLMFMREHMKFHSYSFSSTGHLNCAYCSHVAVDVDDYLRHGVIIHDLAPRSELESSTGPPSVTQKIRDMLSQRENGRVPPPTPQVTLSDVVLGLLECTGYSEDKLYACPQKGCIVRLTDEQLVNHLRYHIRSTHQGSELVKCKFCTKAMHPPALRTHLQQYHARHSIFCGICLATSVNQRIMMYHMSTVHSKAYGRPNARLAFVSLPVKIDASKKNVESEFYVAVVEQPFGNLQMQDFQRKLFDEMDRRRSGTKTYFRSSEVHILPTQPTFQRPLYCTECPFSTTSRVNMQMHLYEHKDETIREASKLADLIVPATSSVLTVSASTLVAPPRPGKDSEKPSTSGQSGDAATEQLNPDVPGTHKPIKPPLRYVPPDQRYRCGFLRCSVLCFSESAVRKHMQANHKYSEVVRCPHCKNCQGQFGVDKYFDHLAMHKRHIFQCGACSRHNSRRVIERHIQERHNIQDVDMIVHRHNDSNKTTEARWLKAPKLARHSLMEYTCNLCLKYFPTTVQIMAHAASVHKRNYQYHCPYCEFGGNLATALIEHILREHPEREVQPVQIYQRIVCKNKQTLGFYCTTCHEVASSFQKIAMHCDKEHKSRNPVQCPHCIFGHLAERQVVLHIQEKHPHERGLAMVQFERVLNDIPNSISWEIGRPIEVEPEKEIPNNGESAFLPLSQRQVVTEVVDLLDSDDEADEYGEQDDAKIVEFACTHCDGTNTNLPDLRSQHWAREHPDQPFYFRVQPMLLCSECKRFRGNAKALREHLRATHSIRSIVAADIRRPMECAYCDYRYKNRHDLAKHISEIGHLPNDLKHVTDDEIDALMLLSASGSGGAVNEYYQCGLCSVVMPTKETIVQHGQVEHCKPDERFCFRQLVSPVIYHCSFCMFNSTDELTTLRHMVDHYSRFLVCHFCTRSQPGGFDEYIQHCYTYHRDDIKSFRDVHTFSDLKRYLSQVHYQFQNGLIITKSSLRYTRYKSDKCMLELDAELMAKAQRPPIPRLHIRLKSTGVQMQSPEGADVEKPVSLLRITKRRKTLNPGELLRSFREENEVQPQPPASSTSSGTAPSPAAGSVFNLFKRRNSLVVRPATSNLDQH

What was measured:
[1] = biological target: 3xFLAG-TurboID-TEsup-1 (Drosophila melanogaster (endogenous in OSCs)) (UniProt Q9VBX4); test: proximity labelling
[2] = biological target: T1, 3xFLAG-TurboID-TEsup-2 (Drosophila melanogaster (endogenous in OSCs)) (UniProt Q7YZA2); test: proximity labelling
T1 sequence: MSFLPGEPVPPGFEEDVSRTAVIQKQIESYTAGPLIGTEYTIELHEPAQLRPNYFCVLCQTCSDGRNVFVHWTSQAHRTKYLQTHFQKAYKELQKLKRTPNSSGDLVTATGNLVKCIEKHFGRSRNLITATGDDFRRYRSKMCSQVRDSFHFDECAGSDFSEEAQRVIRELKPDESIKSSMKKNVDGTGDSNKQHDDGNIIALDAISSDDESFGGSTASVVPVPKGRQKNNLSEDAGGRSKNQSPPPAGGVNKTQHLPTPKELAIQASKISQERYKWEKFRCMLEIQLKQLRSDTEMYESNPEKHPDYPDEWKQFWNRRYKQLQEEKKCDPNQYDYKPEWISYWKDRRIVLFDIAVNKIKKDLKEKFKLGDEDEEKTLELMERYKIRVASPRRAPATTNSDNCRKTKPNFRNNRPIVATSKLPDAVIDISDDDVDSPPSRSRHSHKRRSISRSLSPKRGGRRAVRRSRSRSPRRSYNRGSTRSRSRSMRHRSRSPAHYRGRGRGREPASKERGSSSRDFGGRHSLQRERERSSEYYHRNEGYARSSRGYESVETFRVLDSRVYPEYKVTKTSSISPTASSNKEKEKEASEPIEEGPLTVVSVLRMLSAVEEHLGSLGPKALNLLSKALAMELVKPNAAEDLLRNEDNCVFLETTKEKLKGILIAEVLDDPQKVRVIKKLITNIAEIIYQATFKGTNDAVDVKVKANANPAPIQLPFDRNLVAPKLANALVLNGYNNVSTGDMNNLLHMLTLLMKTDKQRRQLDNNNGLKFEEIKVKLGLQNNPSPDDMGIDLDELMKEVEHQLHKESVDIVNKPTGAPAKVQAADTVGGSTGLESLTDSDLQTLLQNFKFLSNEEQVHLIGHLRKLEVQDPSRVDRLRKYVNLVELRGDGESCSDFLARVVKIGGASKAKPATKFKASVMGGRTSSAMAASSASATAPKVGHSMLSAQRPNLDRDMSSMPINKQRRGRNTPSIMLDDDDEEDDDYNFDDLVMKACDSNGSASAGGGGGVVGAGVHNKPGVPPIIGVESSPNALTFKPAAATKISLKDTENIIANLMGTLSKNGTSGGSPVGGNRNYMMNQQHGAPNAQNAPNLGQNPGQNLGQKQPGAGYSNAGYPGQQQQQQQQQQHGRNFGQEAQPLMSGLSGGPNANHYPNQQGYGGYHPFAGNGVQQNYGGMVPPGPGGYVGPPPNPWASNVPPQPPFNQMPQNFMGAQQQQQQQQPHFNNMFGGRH

[3] = biological target: Mtr4-dTAG-V5-3xFLAG (Drosophila melanogaster (endogenous in OSCs)) (UniProt Q9Y134); test: affinity purification with mass spectrometry
[4] = biological target: T2, dZcchc8-GFP-V5-3xFLAG (Drosophila melanogaster (endogenous in OSCs)) (UniProt Q2PE14); test: affinity purification with mass spectrometry
T2 sequence: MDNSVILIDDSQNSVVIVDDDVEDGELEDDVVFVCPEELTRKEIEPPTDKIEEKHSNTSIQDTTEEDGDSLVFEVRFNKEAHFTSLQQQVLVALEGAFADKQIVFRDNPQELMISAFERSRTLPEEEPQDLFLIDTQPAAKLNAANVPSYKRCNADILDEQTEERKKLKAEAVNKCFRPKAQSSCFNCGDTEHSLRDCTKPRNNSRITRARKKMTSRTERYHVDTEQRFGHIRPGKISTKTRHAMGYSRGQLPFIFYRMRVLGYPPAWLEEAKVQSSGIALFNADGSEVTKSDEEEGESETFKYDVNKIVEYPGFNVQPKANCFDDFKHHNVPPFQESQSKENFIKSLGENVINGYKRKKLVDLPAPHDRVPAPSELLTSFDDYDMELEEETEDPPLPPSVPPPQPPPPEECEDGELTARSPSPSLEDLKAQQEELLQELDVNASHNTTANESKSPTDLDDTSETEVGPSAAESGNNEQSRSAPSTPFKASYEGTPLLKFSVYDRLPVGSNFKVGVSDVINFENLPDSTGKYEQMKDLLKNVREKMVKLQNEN

[5] = biological target: T3, 3xFLAG-V5-GFP-TEsup-2 (Drosophila melanogaster (endogenous in OSCs)) (UniProt Q7YZA2); test: affinity purification with mass spectrometry
T3 sequence: T1 sequence

[6] = biological target: 3xFLAG-V5-GFP-TEsup-1 (Drosophila melanogaster (endogenous in OSCs)) (UniProt Q9VBX4); test: affinity purification with mass spectrometry
[7] = biological target: FLAG-Asterix/Gtsf1 (Drosophila melanogaster) (UniProt Q8SWX0); test: affinity purification with mass spectrometry
[8] = biological target: 3xFLAG-V5-GFP-dZfc3h1 (Drosophila melanogaster (endogenous in OSCs and ovaries)) (UniProt Q9W238); test: affinity purification with mass spectrometry
[9] = biological target: T4, FLAG-Maelstrom (Drosophila melanogaster) (UniProt Q9VNS0); test: affinity purification with mass spectrometry
T4 sequence: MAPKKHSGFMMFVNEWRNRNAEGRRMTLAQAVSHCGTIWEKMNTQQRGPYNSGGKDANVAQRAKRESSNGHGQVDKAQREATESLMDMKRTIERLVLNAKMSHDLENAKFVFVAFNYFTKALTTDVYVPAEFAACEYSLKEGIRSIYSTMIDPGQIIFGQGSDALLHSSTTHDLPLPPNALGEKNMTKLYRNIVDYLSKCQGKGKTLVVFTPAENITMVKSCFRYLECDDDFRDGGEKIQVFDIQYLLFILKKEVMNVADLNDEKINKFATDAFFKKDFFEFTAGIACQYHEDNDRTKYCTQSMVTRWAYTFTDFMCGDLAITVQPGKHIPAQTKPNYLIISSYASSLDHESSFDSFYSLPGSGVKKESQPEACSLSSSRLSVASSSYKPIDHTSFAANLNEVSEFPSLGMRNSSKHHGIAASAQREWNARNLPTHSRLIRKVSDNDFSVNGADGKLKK

[10] = biological target: 3xFLAG-V5-GFP-dZfc3h1 (Drosophila melanogaster (endogenous in OSCs and ovaries)) (UniProt Q9W238); test: affinity purification with mass spectrometry; remark: listed apart in the source
[11] = biological target: His10-FLAG-GFP-3C-V5 fused TEsup-1 PRD (aa 702-820) (Drosophila melanogaster) (UniProt Q9VBX4); test: affinity purification with mass spectrometry

binding [1] | binding [2] | binding [3] | binding [4] | binding [5] | binding [6] | binding [7] | binding [8] | binding [9] | binding [10] | binding [11] | Substance
binds | binds | binds | binds | binds | binds |  |  |  |  |  | Asterix/Gtsf1 (from UniProt Q8SWX0)
 |  |  | binds |  |  |  |  |  |  |  | NEXT-specific RNA-binding protein dRbm7 (CG11454) (from UniProt Q9VPK4)
 |  |  | binds |  |  |  |  |  |  |  | RNA helicase Mtr4 (enzyme)
binds |  |  |  |  | binds |  |  |  |  |  | Sov (from UniProt Q9W3W6)
 | binds | binds | binds | binds |  | binds | binds | binds | binds |  | TEs are up-1 (TEsup-1; CG31510) (from UniProt Q9VBX4)
binds | binds | binds |  | binds | binds |  |  |  |  | binds | dZcchc7 (from UniProt Q9VVA9)
binds | binds | binds |  | binds | binds |  |  |  |  | binds | dZfc3h1 (CG4294) (from UniProt Q9W238)

Read-outs that look alike come from different tables or passages of the source. Results are given in words; binding and its absence hold for the method and conditions named. In cells and extracts the contact can be indirect. A yes stands for co-enrichment or nearness to the bait. Other partners may have been found. For part of these data: Tags and fused reporters may be left off the sequences shown.
